Article PMC8073576

The chains behind the UniProt entries cited, without tags or fusion partners.
UniProt P07355: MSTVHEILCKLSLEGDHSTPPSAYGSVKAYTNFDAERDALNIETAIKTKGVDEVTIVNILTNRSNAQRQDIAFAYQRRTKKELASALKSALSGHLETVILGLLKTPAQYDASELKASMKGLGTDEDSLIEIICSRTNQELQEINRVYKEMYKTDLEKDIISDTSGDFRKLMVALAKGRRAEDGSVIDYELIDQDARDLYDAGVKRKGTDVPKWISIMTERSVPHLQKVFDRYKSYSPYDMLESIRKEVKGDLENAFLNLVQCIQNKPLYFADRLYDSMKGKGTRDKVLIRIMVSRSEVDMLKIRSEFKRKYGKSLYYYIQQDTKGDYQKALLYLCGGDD

Molecular target: T1, FLAG-HIS-PRDX2 (human peroxiredoxin 2, wild-type) (human) (UniProt P32119)
T1 sequence: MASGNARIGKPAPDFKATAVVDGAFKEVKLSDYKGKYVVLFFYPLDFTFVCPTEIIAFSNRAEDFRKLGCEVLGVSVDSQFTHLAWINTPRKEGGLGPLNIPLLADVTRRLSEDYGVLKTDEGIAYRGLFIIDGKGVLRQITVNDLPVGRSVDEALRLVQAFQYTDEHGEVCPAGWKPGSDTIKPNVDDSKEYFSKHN
Experiment: affinity purification with mass spectrometry; Flag-PRDX2 (wild-type or CPRS mutant) immunoprecipitated on anti-Flag-M2 beads from HEK293T cells treated with 25 uM H2O2 for 2 min; free thiols alkylated with NEM and iodoacetamide; washes with lysis buffer containing 1 M NaCl; on-bead digestion, label-free quantification, proDA analysis of WT against CPRS; three biological replicates

binding: binds
Substance: ANXA2 (from UniProt P07355 1-339)

These are yes or no findings as the source states them, for the method shown. In cells and extracts the contact can be indirect. These calls come from enrichment with a bait or labelling near it, and not all partners need be listed. Where a sequence is shown, tags or fusion partners need not be part of it.
